Values quoted from earlier work as cited in patent publication US10617557B2, “Combined drug delivery methods and apparatus” (ForSight Vision4, Inc., priority 2010, dated 2020).
For at least one compound, name, drawing or mass did not settle the structure.

Conditions: representative of a small molecule, input of the calculation; cited from earlier work

In the case of `CC1(C)O[C@@H]2C[C@H]3[C@@H]4CCC5=CC(=O)C=C[C@]5(C)[C@@]4(F)[C@@H](O)C[C@]3(C)[C@]2(C(=O)CO)O1` [triamcinolone acetonide], the Diffusion coeff is listed as 5 e-6 cm2/s.
